# Some of the results follow.
# Amino acid sequences for entries named in this document (tags omitted). A change or cut given only in a name is not applied to a line headed by its entry.
# UniProt Q99798: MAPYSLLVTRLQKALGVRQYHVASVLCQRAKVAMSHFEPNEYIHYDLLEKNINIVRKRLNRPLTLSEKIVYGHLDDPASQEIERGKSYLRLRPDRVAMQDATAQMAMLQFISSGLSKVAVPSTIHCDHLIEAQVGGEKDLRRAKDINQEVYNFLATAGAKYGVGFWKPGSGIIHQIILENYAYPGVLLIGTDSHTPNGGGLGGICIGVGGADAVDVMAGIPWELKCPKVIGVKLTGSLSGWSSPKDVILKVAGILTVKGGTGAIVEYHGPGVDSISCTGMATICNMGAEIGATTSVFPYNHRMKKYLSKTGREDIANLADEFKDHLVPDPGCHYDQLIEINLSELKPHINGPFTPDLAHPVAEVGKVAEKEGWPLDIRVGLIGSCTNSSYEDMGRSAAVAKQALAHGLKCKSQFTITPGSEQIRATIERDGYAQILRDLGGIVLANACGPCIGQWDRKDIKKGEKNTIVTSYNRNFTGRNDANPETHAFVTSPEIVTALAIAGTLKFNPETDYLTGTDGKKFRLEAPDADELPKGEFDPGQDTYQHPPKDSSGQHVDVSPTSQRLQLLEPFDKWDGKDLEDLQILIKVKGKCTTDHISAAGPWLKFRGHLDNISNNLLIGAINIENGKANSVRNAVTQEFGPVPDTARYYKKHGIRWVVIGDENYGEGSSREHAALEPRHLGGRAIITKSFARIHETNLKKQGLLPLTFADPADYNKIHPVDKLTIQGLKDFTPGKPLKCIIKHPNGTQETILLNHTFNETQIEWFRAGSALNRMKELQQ
# UniProt P53396: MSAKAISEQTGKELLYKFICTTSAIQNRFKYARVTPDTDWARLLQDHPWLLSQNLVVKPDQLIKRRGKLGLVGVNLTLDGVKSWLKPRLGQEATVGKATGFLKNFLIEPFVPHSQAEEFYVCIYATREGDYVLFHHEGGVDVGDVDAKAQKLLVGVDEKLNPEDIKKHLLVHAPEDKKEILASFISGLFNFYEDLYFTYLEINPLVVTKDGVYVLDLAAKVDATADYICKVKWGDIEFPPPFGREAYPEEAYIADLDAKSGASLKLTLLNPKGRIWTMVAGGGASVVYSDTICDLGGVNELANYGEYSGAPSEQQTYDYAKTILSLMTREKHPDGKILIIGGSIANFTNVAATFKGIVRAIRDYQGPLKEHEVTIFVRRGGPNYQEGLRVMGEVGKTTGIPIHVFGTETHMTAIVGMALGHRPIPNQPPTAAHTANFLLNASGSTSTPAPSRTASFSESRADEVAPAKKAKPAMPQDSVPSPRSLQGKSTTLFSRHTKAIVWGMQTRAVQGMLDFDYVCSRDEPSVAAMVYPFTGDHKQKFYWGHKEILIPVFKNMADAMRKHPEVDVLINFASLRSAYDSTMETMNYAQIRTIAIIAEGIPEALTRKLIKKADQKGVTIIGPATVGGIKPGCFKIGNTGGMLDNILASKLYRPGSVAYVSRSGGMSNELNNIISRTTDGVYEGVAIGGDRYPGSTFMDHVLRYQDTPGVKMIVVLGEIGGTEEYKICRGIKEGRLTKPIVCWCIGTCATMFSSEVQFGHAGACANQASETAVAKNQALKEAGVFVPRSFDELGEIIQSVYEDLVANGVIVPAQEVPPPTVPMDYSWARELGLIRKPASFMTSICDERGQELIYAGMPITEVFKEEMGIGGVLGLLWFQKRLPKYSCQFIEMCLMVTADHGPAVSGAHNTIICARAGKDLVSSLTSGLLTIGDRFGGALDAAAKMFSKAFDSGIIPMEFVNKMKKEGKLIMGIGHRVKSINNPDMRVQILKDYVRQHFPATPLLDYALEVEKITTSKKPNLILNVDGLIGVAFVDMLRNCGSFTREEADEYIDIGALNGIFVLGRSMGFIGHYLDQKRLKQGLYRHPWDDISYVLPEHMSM
# UniProt P42765: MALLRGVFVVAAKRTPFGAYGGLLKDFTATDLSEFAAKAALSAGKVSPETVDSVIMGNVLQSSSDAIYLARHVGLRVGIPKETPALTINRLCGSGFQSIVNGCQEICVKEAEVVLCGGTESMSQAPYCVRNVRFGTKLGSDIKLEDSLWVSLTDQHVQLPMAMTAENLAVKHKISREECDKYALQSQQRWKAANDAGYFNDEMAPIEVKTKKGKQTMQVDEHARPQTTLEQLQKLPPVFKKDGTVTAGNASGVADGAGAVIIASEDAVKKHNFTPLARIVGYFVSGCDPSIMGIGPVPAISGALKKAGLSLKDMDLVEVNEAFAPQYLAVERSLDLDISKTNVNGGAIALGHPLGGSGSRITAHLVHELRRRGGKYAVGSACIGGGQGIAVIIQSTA
# UniProt P09110: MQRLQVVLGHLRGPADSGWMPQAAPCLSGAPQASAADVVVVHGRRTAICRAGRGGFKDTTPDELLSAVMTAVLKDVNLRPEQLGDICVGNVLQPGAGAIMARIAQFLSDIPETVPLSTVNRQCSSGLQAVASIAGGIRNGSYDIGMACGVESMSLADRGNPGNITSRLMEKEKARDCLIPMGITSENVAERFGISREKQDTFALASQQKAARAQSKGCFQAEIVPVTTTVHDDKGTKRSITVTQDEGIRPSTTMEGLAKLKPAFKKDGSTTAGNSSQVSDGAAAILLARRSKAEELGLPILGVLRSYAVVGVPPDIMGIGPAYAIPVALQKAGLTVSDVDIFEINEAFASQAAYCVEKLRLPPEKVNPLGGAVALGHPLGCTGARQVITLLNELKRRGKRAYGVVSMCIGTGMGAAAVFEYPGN
# UniProt Q9H3P7: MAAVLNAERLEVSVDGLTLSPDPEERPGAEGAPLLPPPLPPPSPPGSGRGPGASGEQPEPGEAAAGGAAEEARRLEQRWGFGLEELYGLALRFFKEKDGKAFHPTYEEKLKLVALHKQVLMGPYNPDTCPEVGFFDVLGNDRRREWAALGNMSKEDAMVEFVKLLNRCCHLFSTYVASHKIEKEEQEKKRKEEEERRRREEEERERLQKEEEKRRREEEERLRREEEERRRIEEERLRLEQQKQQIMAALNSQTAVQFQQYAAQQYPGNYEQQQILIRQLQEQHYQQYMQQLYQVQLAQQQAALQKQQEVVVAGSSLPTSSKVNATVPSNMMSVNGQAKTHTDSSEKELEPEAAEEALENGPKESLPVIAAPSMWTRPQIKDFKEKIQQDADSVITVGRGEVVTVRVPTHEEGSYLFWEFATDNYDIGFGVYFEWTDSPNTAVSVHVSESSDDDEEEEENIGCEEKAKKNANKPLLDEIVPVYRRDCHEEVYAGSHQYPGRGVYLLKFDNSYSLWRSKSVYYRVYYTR
# UniProt O95870: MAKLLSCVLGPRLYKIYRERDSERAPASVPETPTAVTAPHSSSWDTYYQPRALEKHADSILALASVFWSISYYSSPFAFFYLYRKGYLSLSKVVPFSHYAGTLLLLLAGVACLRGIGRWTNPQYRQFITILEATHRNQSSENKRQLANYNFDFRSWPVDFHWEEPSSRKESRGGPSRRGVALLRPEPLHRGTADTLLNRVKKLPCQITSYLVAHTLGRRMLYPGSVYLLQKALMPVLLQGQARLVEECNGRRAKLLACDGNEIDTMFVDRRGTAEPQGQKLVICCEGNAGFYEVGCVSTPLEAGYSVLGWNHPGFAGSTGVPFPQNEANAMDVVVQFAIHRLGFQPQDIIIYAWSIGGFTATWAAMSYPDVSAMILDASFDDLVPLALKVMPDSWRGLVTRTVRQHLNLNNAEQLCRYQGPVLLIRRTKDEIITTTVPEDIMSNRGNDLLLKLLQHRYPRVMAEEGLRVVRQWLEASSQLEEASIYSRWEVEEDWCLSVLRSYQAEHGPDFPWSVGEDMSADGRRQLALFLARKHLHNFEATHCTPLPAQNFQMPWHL
# UniProt Q2M2I8: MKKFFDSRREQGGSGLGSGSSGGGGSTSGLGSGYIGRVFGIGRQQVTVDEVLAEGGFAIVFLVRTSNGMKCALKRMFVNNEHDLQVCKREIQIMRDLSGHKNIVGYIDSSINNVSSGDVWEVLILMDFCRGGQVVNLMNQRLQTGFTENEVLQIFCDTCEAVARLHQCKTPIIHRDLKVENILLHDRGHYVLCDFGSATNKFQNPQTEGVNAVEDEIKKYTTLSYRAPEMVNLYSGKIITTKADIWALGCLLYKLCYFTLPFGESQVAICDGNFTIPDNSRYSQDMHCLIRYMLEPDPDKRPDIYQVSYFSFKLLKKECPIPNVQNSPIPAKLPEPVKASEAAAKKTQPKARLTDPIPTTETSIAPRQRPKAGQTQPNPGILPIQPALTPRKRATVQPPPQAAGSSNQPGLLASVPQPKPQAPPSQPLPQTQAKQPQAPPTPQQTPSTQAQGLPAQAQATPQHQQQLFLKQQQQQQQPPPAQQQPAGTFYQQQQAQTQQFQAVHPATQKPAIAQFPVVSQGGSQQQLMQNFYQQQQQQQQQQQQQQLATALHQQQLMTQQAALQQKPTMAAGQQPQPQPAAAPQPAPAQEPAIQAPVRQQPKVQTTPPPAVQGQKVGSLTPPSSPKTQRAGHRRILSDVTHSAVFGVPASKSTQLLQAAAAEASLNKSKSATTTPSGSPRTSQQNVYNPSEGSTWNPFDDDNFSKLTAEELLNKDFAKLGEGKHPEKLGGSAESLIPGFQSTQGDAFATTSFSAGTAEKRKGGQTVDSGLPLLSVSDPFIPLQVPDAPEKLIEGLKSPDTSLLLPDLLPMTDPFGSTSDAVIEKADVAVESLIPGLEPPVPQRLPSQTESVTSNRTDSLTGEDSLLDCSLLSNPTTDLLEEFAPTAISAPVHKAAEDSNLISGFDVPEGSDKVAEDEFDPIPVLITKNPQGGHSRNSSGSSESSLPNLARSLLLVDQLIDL
# UniProt Q9UG63: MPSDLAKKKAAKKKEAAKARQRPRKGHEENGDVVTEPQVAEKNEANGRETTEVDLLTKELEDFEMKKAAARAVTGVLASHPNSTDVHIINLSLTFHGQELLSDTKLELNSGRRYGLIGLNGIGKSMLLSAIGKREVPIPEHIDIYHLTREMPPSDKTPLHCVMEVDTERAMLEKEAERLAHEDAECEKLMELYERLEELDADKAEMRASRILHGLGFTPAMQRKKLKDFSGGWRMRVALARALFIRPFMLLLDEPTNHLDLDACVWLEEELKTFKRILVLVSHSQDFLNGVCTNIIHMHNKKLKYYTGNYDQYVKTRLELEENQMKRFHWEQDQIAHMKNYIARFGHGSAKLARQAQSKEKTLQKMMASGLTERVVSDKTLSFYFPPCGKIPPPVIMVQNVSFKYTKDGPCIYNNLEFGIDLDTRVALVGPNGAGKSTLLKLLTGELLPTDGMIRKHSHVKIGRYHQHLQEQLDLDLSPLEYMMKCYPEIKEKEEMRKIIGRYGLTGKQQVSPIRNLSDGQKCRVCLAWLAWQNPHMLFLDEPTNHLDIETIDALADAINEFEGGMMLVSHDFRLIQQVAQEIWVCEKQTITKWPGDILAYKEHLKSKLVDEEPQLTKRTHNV
# UniProt P49588, whole entry, looked up: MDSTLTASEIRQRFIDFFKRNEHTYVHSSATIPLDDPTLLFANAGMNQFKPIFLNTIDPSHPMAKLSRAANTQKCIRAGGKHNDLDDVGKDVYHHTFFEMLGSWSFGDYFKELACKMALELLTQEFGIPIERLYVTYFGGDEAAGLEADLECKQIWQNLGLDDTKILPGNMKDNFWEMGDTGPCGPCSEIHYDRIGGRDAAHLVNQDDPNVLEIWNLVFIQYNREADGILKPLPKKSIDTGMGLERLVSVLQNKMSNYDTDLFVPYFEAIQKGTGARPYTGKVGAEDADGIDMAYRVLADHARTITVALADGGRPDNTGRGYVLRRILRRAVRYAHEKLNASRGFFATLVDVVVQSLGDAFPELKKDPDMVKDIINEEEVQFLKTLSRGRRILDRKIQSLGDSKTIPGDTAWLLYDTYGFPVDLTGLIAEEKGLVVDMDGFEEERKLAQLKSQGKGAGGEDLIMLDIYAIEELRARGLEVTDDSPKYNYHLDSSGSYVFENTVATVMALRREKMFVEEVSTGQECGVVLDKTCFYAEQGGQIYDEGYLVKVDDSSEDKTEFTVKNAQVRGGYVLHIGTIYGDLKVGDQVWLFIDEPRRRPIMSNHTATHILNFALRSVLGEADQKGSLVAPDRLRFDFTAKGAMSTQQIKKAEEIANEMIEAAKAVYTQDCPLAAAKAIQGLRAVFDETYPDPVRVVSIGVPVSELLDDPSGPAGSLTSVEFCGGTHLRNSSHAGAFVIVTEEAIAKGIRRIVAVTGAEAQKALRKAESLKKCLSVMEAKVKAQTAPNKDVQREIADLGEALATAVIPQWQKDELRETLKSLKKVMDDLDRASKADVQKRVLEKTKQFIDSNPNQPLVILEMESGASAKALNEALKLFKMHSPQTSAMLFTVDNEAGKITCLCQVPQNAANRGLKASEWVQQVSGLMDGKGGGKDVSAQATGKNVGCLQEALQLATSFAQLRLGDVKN
# Compound: CC1Cc2ccccc2N1C(=O)C1CCCN(C1)C(=O)CCl (mixture of isomers) [TRIM25 ligand 11 (diastereomer mixture)]
# Experiment: probe-labelled cysteine peptide fold change vs DMSO (competition) (log2 fold change); higher = less target engagement (more negative = stronger competition)
# Settings: THP-1, incubation time: 4 h
# 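Note: competitive chemoproteomic profiling in live THP-1 cells with an iodoacetamide desthiobiotin (IA-DTB) probe, comparing probe-labelled peptide intensities in compound-treated cells against DMSO-treated controls.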
Target,probe-labelled cysteine peptide fold change (10 µM),probe-labelled cysteine peptide fold change (50 µM)
ACO2_Q99798_448+451_DLGGIVLANACGPCIGQWDRK (UniProt Q99798),-0.253,-0.169
ACD_Q96AP0_466_EFVGLPCK (UniProt Q96AP0),-0.0366,-0.177
ABHD6_Q9BV23_217_IPLIPSTPEEMSEMLQLCSYVR (UniProt Q9BV23),0.278,0.0413
ACAP2_Q15057_10_MTVDFEECLK (UniProt Q15057),-0.016,-0.000717
ACLY_P53396_229_VDATADYICK (UniProt P53396),0.099,0.0927
ACAA2_P42765_128_EAEVVLCGGTESMSQAPYCVR (UniProt P42765),-0.196,0.031
ACAA1_P09110_177_ARDCLIPMGITSENVAER (UniProt P09110),-0.0216,0.0471
ABI1_Q8IZP0_488_NDDGWYEGVCNR (UniProt Q8IZP0),0.000739,0.0335
ACO2_Q99798_451_DLGGIVLANACGPCIGQWDRK (UniProt Q99798),-0.223,-0.185
AACS_Q86V21_493_AVWGESGELVCTKPIPCQPTHFWNDENGNK (UniProt Q86V21),0.0688,-0.0616
AARS2_Q5JTZ9_749_VVSVGVPVAHALDPASQAALQTSVELCCGTHLLR (UniProt Q5JTZ9),-0.176,-0.194
ABCF3_Q9NUQ8_680_ELWVCEGGGVTR (UniProt Q9NUQ8),0.0503,0.0999
ACAA1_P09110_218_GCFQAEIVPVTTTVHDDK (UniProt P09110),-0.0953,-0.06
ACAT1_P24752_119_QAVLGAGLPISTPCTTINK (UniProt P24752),0.0397,-0.0258
ACAA2_P42765_116_EAEVVLCGGTESMSQAPYCVR (UniProt P42765),0.222,-0.145
ACLY_P53396_633_GVTIIGPATVGGIKPGCFK (UniProt P53396),0.0182,-0.0957
AACS_Q86V21_299_CMVHSAGGTLIQHLK (UniProt Q86V21),-0.0715,0.154
ABCE1_P61221_475_VALALCLGK (UniProt P61221),-0.0455,0.0485
ACBD3_Q9H3P7_487_RDCHEEVYAGSHQYPGR (UniProt Q9H3P7),0.146,0.0513

Target,probe-labelled cysteine peptide fold change (10 µM),probe-labelled cysteine peptide fold change (50 µM)
ACLY_P53396_519_AVQGMLDFDYVCSR (UniProt P53396),0.063,0.0843
ACAA1_P09110_177_DCLIPMGITSENVAER (UniProt P09110),-0.13,-0.199
ACO1_P21399_50_NCDEFLVK (UniProt P21399),-0.0915,0.0905
ACAT2_Q9BWD1_148+158_IGEMPLTDSILCDGLTDAFHNCHMGITAENVAK (UniProt Q9BWD1),-0.0352,-0.405
ABHD16A_O95870_544_HLHNFEATHCTPLPAQNFQMPWHL (UniProt O95870),-0.0573,-0.298
ABHD17B_Q5VST6_250_CQRPVEPLWVEGAGHNDVELYGQYLER (UniProt Q5VST6),0.129,0.259
AAK1_Q2M2I8_250_ADIWALGCLLYK (UniProt Q2M2I8),0.00782,0.228
ABCE1_P61221_231_FACAVVCIQK (UniProt P61221),0.109,0.163
AAAS_Q9NRG9_321_VWEAQMWTCER (UniProt Q9NRG9),-0.0742,-0.183
ABCE1_P61221_201_TQAIVCQQLDLTHLK (UniProt P61221),-0.0454,-0.0454
ABCE1_P61221_227_FACAVVCIQK (UniProt P61221),-0.301,0.211
ACAT2_Q9BWD1_65_ATVAPEDVSEVIFGHVLAAGCGQNPVR (UniProt Q9BWD1),-0.0178,-0.0209
ABCF2_Q9UG63_161_TPLHCVMEVDTER (UniProt Q9UG63),-0.000656,-0.172
ABHD17A_Q96GS6_205_YECAAVVLHSPLTSGMR (UniProt Q96GS6),0.0924,-0.0239
ABCD1_P33897_599_EGGWEAMCDWK (UniProt P33897),0.077,-0.149
ACADS_P16219_246_GSSTANLIFEDCR (UniProt P16219),-0.0306,-0.183
ACAA1_P09110_49_RTAICR (UniProt P09110),0.0908,0.205
AAMP_Q13685_130_LSDGELLFECAGHK (UniProt Q13685),0.043,-0.0263
ACLY_P53396_1040_NCGSFTREEADEYIDIGALNGIFVLGR (UniProt P53396),-0.191,-0.0516

Target,probe-labelled cysteine peptide fold change (10 µM),probe-labelled cysteine peptide fold change (50 µM)
ACACA_Q13085_1176_DNTCVVEFQFMLPTSHPNR (UniProt Q13085),-0.0885,0.0228
ACBD6_Q9BR61_166_NIFDYCR (UniProt Q9BR61),-0.116,0.0214
ABRAXAS2_Q15018_224_VQAVCADVEK (UniProt Q15018),0.076,0.0828
A2ML1_A8K2U0_694_PVDCSHR (UniProt A8K2U0),-0.182,-0.00161
ACACA_Q13085_1470_TDCNHIFLNFVPTVIMDPSK (UniProt Q13085),0.156,-0.0283
ACIN1_Q9UKV3_1052_SHCFVTYSTVEEAVATR (UniProt Q9UKV3),-0.0442,0.0352
AARS_P49588_671_AVYTQDCPLAAAK (UniProt P49588),0.01,-0.0594
AAK1_Q2M2I8_288_YSQDMHCLIR (UniProt Q2M2I8),0.0172,-0.0569
ABCF2_Q9UG63_586_LIQQVAQEIWVCEK (UniProt Q9UG63),0.187,0.141
ACOT2_P49753_401_SEFYANEACK (UniProt P49753),-0.0128,-0.2
ABCC4_O15439_1226_FAHCTVLTIAHR (UniProt O15439),0.195,0.217
ABHD16A_O95870_205_KLPCQITSYLVAHTLGR (UniProt O95870),-0.152,0.0294
AARS_P49588_901+903_ITCLCQVPQNAANR (UniProt P49588),0.18,0.201
ACO2_Q99798_592_CTTDHISAAGPWLK (UniProt Q99798),0.0877,0.0227
ABL1_P00519-2_39_HGGPHCNVFVEHEALQRPVASDFEPQGLSEAAR (UniProt P00519),-0.11,-0.0341
ACBD3_Q9H3P7_129_QVLMGPYNPDTCPEVGFFDVLGNDR (UniProt Q9H3P7),-0.0188,-0.116
AACS_Q86V21_15_EERPGREEILECQVMWEPDSKK (UniProt Q86V21),-0.073,-0.165
ACO2_Q99798_332_DHLVPDPGCHYDQLIEINLSELK (UniProt Q99798),0.0742,0.101

# Source: the supplement of paper PMC12067093, “Discovery and optimisation of a covalent ligand for TRIM25 and its application to targeted protein ubiquitination” (Chemical Science, 2025)
